No constants are given. Whether binding was seen depends on the method and setting. In cells and extracts the contact can be indirect. Some binding calls cover weakened binding; strength is not graded here. Sequences can lack the tags named with a protein.
What was measured:
[1] = molecular target: CIPK15-HA (Ubi:CIPK15-HA) (Oryza sativa (rice)) (UniProt Q2RBF0); test: co-IP with GFP-Trap from co-transfected rice protoplasts, immunoblot
[2] = molecular target: CIPK15-HA (Ubi:CIPK15-HA) (Oryza sativa (rice)) (UniProt Q2RBF0); test: co-IP with GFP-Trap from co-transfected rice protoplasts (FIG. 3e)

Amino acid sequences for entries named in this document (tags omitted). A change or cut given only in a name is not applied to a line headed by its entry.
UniProt Q2RBF0: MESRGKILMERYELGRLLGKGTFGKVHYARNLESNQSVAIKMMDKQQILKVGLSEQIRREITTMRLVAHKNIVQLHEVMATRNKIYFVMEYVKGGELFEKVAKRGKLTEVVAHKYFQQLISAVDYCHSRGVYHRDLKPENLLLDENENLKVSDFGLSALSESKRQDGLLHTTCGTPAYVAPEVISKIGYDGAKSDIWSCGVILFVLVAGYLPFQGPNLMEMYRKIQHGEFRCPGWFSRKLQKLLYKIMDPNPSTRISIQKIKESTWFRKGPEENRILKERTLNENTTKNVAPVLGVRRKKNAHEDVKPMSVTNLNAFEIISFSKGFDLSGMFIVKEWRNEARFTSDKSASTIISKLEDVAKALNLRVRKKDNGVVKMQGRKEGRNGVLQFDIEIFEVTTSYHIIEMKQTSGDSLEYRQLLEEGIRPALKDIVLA

binding [1]: binds
binding [2]: binds
B1: VDAC1-GFP (Ubi:VDAC1-GFP) (other, rice, UniProt Q6K548 2-274, looked up)
chain: VGPGLYPEIGKKARDLLYRDYQTDHKFTLTTYTSNGVAITATSTKKADLIFGEIQSQIKNKNITVDVKANSDSNVVTTVTVDELTPGLKSILSFAVPDQRSGKFELQYSHDYAGVSASIGLTASPVVNLSSVFGTKALAVGADVSLDTATGNLTKYNAGLSFSNDDLIASLNLNNKGDSLTASYYHIVNHSATAVGAELTHSFSSNENSLTFGTQHTLDPLTVVKARFNNSGKASALLQHEWRPKSVWTISAEVDTKAIDKSSKVGIAVALKP
notes: Expressed transiently in rice protoplasts and pulled down with GFP-Trap; not shown: GFP reporter (pUbi:ccdB-GFP vector)
